No constants are given. Whether binding was seen depends on the method and setting. In cells and extracts the contact can be indirect. Some binding calls cover weakened binding; strength is not graded here.
Biological target: endogenous β-Catenin of embryonic stem cells (ESCs) (UniProt Q02248)
Assay: Co-IP with anti-Myc antibody from BIO-treated ESCs, immunoblot for β-Catenin

Protein sequences, listed by entry. Tags and fused reporters are not part of them. Lines headed by an entry give the natural chain unless they say otherwise; changes in a name come on top. Chains listed by the source or under a name are the forms on record and can include a tag or linker. Residues count along the entry.
UniProt Q02248, residues 2-781: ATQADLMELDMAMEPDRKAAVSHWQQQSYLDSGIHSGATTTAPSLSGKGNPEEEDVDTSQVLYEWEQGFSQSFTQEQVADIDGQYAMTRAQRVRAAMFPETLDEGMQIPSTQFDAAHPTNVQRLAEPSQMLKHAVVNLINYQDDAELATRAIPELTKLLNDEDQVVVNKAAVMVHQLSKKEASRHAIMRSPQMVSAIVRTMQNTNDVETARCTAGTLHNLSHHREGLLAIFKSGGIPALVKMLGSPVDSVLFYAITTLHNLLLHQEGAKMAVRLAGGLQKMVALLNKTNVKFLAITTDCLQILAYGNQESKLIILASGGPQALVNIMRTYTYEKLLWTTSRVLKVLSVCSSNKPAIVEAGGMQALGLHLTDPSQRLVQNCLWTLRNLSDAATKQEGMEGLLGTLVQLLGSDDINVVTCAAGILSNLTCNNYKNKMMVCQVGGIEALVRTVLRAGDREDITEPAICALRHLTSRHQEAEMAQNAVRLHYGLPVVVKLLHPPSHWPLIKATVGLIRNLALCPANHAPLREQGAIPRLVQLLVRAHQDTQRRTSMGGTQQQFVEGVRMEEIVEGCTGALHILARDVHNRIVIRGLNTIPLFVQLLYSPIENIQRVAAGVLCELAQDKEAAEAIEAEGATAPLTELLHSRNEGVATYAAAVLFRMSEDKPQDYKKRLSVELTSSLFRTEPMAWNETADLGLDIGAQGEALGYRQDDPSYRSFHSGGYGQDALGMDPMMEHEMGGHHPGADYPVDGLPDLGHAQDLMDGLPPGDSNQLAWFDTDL
constitutively activated membrane-bound Notch1, wild-type at V1744 (Q01705, residues 1704-2183): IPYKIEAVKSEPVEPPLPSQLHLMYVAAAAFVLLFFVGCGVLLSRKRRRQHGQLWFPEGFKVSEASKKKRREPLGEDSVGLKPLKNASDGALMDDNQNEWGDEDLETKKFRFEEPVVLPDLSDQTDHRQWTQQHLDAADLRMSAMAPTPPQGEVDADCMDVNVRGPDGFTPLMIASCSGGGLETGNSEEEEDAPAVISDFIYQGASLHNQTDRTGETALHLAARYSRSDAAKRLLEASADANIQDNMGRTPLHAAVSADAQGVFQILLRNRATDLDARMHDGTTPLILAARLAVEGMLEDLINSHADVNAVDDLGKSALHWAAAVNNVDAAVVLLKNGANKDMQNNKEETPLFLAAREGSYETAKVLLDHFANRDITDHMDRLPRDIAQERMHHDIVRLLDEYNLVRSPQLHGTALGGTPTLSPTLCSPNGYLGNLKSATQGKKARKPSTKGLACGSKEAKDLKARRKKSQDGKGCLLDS
tethered Notch1 V1744K (Q01705, form named): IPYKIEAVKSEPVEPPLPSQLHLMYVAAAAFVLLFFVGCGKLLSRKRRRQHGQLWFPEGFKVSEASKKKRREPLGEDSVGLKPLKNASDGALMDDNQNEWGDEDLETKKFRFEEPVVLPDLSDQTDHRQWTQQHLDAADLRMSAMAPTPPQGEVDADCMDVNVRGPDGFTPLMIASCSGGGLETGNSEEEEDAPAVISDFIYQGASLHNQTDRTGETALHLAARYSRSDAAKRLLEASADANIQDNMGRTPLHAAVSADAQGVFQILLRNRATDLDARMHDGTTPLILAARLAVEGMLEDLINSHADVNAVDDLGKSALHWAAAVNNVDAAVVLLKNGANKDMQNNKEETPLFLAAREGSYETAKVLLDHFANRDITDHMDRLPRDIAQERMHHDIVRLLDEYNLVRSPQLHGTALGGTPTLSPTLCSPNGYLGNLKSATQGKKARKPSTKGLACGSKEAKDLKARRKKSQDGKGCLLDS

binding | Substance
binds | constitutively activated membrane-bound Notch1, wild-type at V1744 (from UniProt Q01705 1704-2183) (receptor)
binds | tethered Notch1 V1744K (from UniProt Q01705 1704-2183) (receptor)
